Test results reported in the supplement of paper PMC10849652.
Some of the results follow.

Protein sequences, listed by entry. Tags and fused reporters are not part of them. Lines headed by an entry give the natural chain unless they say otherwise; changes in a name come on top.
UniProt Q96DE9: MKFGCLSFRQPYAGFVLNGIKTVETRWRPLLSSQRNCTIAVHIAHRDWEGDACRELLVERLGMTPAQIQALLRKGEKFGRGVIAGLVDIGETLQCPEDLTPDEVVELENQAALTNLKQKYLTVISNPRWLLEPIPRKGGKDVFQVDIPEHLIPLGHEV
UniProt Q8NI51: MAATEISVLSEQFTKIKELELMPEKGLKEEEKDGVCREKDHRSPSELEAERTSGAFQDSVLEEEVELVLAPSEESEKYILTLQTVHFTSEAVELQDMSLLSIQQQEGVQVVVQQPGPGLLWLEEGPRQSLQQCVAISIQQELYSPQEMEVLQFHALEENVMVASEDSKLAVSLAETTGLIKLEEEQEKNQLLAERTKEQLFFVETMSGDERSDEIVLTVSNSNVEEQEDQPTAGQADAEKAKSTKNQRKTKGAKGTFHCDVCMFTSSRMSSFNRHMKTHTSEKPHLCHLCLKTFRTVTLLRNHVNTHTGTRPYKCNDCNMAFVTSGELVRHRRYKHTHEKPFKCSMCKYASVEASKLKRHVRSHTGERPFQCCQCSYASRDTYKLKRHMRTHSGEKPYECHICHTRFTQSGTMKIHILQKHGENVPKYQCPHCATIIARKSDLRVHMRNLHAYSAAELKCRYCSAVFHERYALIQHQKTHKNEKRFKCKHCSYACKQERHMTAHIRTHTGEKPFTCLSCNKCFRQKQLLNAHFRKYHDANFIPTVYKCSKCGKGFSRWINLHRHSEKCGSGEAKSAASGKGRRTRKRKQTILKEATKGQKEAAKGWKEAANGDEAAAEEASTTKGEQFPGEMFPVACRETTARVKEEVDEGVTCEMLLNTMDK
UniProt O75534: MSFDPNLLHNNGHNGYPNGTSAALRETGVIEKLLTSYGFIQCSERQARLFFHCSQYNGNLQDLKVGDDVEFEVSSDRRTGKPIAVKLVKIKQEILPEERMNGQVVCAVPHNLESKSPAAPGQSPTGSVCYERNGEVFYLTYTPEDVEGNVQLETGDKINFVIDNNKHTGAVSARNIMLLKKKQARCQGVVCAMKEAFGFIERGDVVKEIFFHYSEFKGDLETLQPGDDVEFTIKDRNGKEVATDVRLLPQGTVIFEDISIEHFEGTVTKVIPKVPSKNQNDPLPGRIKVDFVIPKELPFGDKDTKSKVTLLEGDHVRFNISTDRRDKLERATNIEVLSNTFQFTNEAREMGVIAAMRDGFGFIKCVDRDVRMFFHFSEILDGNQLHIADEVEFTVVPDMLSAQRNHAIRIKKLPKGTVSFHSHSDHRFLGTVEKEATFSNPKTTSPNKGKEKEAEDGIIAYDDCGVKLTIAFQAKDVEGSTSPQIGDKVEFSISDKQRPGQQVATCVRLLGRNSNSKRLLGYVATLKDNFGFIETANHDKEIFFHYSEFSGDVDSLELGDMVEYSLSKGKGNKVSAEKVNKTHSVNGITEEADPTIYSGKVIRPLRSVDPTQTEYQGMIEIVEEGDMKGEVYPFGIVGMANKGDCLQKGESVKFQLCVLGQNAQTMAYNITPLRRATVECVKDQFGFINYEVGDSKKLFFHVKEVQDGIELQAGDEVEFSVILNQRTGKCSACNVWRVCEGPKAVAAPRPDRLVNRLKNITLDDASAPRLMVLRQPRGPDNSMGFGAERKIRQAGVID
UniProt P25774, whole entry, looked up: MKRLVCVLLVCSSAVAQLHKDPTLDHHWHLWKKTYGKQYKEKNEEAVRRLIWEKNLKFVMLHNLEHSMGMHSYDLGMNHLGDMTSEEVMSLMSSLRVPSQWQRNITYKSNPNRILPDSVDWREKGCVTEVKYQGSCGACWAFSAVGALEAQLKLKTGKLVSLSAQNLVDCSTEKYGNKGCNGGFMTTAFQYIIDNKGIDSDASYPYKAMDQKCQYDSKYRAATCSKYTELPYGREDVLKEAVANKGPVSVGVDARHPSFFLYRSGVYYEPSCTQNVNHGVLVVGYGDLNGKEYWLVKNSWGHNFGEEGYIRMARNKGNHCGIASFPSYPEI
UniProt Q9NSA3: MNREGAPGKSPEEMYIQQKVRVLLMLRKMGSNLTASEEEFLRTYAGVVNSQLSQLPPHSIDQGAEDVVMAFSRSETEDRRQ
UniProt O60931: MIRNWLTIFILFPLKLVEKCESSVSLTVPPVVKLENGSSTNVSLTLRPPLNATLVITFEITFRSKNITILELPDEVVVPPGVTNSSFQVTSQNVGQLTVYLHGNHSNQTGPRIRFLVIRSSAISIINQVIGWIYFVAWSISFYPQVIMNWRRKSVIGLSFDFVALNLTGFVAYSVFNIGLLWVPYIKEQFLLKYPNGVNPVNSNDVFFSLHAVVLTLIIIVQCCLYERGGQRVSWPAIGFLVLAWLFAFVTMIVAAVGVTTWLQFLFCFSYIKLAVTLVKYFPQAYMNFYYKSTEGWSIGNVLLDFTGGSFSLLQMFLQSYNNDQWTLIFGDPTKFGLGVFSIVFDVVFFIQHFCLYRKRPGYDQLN
UniProt Q96RY5: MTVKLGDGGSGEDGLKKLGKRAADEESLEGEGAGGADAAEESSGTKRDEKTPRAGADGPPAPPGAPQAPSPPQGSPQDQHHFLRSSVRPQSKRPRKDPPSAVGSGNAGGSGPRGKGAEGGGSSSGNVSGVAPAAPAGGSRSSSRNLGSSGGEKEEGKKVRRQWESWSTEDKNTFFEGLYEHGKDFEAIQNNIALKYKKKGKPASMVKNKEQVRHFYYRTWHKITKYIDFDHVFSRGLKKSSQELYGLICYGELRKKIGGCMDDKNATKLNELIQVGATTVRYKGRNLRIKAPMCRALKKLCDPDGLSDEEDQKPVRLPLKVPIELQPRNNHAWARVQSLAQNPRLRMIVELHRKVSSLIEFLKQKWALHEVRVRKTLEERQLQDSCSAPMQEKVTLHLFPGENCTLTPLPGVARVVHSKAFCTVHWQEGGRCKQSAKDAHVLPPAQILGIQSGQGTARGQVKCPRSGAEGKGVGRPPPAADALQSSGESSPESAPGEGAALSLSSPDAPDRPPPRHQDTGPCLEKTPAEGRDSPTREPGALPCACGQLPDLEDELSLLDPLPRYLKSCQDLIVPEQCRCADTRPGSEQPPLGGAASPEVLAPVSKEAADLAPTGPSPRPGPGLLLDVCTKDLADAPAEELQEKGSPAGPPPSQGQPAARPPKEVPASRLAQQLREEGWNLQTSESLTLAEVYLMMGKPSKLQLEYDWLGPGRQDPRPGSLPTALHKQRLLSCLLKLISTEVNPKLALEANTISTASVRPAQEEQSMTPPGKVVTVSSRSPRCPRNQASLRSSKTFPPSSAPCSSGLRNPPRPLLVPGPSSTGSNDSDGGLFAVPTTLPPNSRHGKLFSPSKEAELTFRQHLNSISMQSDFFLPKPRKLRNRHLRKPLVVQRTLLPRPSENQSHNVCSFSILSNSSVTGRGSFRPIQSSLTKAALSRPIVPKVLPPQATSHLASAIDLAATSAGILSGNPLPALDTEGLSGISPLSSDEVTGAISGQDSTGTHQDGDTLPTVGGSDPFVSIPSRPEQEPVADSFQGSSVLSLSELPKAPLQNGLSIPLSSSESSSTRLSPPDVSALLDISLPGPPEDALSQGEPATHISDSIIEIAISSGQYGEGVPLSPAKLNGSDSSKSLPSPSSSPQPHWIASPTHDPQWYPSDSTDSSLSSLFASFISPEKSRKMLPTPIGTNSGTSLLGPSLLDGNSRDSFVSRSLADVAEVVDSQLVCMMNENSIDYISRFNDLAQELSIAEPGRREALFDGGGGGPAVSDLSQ
UniProt Q86T23: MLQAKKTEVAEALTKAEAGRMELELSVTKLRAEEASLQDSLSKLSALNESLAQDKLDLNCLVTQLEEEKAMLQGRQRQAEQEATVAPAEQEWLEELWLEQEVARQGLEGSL
UniProt Q9Y6M4: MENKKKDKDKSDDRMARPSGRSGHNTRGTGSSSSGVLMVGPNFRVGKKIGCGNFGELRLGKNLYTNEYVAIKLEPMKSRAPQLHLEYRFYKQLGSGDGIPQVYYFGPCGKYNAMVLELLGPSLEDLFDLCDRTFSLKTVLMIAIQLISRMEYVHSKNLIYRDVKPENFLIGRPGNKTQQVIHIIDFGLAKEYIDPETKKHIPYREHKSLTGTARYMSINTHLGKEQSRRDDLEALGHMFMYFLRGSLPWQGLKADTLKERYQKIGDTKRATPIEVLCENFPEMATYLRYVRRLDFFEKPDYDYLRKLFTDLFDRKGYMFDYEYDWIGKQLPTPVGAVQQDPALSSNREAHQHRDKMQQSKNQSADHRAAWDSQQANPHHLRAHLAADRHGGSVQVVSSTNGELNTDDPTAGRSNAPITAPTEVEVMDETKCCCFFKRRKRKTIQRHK
UniProt O95476: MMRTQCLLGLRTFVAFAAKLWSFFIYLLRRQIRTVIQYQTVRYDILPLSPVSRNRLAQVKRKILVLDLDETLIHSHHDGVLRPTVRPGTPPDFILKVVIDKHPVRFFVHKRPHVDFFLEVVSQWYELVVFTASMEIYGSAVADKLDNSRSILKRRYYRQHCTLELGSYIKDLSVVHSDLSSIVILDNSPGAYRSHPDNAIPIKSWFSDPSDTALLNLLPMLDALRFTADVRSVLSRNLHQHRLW
UniProt Q9UKG9: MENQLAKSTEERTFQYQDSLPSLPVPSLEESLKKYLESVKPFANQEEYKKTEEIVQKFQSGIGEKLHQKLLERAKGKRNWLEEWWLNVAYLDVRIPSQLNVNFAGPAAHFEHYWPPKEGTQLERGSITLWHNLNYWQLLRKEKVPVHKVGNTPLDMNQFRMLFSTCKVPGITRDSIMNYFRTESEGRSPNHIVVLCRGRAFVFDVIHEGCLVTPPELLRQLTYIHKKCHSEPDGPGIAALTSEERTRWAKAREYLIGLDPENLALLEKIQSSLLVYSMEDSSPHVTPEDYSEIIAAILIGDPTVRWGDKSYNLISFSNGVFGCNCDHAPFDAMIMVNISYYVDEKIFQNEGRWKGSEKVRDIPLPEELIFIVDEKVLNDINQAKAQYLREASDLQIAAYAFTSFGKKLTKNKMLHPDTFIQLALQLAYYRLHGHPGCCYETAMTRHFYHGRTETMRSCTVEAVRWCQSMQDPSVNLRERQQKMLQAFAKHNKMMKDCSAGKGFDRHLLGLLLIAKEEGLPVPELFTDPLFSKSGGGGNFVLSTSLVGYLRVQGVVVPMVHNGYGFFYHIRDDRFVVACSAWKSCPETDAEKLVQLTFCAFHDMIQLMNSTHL
UniProt P48730: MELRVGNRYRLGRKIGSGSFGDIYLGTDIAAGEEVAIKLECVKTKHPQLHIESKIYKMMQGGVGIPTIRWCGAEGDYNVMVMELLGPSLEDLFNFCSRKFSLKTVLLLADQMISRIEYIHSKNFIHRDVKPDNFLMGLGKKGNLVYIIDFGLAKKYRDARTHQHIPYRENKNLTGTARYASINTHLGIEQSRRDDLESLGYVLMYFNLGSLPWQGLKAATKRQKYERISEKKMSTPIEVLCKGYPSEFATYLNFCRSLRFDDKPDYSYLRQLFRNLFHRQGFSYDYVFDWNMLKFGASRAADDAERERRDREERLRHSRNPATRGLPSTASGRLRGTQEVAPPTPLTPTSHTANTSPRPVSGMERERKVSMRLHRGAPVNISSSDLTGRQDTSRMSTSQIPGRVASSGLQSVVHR
UniProt Q7LFL8: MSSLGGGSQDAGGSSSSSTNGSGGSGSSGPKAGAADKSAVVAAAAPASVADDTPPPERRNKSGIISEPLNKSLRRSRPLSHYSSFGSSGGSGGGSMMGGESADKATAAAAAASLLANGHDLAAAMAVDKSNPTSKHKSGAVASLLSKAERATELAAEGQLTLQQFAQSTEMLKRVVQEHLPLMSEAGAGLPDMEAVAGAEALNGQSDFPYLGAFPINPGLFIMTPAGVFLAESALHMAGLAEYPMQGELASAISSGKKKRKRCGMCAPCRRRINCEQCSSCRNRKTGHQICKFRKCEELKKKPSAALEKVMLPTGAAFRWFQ
UniProt Q14894: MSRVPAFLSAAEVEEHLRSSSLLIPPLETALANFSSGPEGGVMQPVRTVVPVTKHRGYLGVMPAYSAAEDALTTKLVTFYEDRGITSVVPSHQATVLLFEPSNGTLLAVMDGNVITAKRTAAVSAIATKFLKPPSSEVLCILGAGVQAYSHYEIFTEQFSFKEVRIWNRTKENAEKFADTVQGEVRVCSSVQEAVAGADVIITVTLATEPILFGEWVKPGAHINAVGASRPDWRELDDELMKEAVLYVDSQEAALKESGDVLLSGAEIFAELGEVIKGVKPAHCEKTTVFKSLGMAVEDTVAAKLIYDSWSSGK
UniProt O95715: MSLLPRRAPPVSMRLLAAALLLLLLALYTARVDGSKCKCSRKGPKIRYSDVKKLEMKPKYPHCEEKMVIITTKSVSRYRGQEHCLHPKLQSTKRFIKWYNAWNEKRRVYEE
UniProt Q03060: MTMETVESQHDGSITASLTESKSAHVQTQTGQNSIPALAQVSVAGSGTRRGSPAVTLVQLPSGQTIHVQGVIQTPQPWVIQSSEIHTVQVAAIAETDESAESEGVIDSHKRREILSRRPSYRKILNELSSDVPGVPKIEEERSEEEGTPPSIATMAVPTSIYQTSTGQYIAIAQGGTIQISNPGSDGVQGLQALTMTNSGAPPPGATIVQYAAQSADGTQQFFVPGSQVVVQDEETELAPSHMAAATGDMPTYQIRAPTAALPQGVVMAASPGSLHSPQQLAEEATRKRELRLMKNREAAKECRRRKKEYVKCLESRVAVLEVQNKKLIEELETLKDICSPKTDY

What was measured:
Assay in all cases: log2 fold change, soluble protein after heating vs DMSO (PISA); higher = thermal stabilisation; K562 lysate, 10 uM; active = over 0.2 and 3.5 SD of the protein, either way, in both replicates (recomputed)
[1] = compound: C/C(=N\NC(=O)C1=CC(=CC=C1)S(=O)(=O)N2CCOCC2)/C3=C(C=CC(=C3)Cl)O
Outline: (§1)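 Values give the log-two fold change in thermal stability against solvent controls, from duplicates. Crude K562 extract at 1 mg/mL protein, made by dounce homogenisation in PBS pH 7.4 with 1 mM MgCl2, was treated with 10 μM compound for 30 min. After 3 min heating across 48°C-58°C, aliquots were pooled, adjusted to 0.5% NP-40 at 4°C and centrifuged at 21,000xg for 90 min. The supernatant was measured by TMTpro 16plex LC-MS/MS with channel sums equalised.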

[2] = compound: C1=CC2=C(C=CC(=C2)/C=C\3/C(=O)NC(=NCC4=CC=CS4)S3)N=C1
Outline: as §1

[3] = compound: C1=CC2=NC=CN=C2C=C1/C=C/3\C(=O)NC(=O)S3
Outline: as §1

[4] = compound: C1=CC=C(C=C1)C2=NC(=C(N2)C3=CC=NC=C3)C4=CC(=C(C=C4)Cl)O
Outline: as §1

[5] = compound: C1=CC=C2C(=C1)C3=NNC4=CC=CC(=C43)C2=O
Outline: as §1

[6] = compound: C1COCCN1CCN2C3=CC=CC=C3N=C2NC(=O)C4=CC(=CC=C4)[N+](=O)[O-] [IRAK-1-4 Inhibitor I]
Outline: as §1

[7] = compound: C=CC(=O)N1CCC[C@@H](n2nc(-c3ccc(Oc4ccccc4)cc3)c3c(N)ncnc32)C1 [ibrutinib]
Outline: as §1

[8] = compound: CC(=O)c1cnc2ccc(-c3cc(Cl)c(O)c(Cl)c3)nc2c1N[C@H]1CC[C@H](CN(C)C)CC1
Outline: as §1

[9] = compound: CC(C)(C)Cn1c(N)nc2ccc(-c3[nH]c(C(C)(C)C)nc3-c3ccc(F)cc3)nc21 [ralimetinib]
Outline: as §1

[10] = compound: CC(C)(O)CC(=O)NCCn1ccc2ncnc(Nc3ccc(Oc4cccc(C(F)(F)F)c4)c(Cl)c3)c21
Outline: as §1

[11] = compound: CC1=C(C(CC(=O)N1)C2=CC=C(C=C2)C(F)(F)F)C(=O)NC3=C(C=C4C(=C3)C=NN4)F
Outline: as §1

[12] = compound: CC1=C(C2=C(C=C1)C(=O)C3=CC=CC=C3N2CCCN)C
Outline: as §1

[13] = compound: CC1=C(C=C(C=C1)NC(=O)C2=CC(=CC=C2)C(C)(C)C#N)NC3=CC4=C(C=C3)N=CN(C4=O)C
Outline: as §1

[14] = compound: CC1=C(C=C(C=C1)NC(=O)C2=CC(=CC=C2)N(C)C)NC(=O)C3=CC=C(C=C3)O
Outline: as §1

[15] = compound: CC1=CC=C(C=C1)SC2=C3C=C(SC3=CN=C2)C(=O)N
Outline: as §1

[16] = compound: C1CCN(C1)C(=O)NC2=CC=CC(=C2)NC3=NC=C(C(=N3)NCCC4=CN=CN4)Br
Outline: as §1

[17] = compound: C1CN(CCC1(CC2=CC=C(C=C2)Cl)N)C3=NC=NC4=C3C=CN4
Outline: as §1

[18] = compound: C#Cc1cccc(Nc2ncnc3cc(OCCOC)c(OCCOC)cc23)c1 [erlotinib]
Outline: as §1

[19] = compound: C1=CC(=CC=C1C2=NC3=C(N2)C=C(C=C3)C(=O)N)OC4=CC=C(C=C4)Cl
Outline: as §1

[20] = compound: CC(C)C1=C2N=C(C=C(N2N=C1)NCC3=CC=CC=C3)NCCCCCCN
Outline: as §1

Measured: log2 fold change

CXorf40B (UniProt Q96DE9)
inactive: [1] 0.213 | [2] 0.234 | [3] -0.12 | [4] -0.091 | [5] -0.165 | [6] -0.017 | [7] 0.181 | [8] 0.011 | [9] -0.066 | [10] 0.032 | [11] -0.14 | [12] 0.165 | [13] 0.078 | [14] 0.073 | [15] -0.161

CRY2 (UniProt Q49AN0)
inactive: [1] 0 | [2] -0.186 | [5] 0.032 | [11] 0.013

CTRB2 (UniProt Q6GPI1)
inactive: [1] 0.001 | [2] -0.055 | [5] -0.055 | [16] 0.05 | [17] -0.06 | [8] 0.01 | [11] -0.136 | [15] 0.046

CTCFL isoform 7 (UniProt Q8NI51)
inactive: [3] -0.008 | [16] 0.121 | [17] 0.31 | [7] 0.097 | [11] -0.013 | [13] 0.156

CSDE1 isoform 3 (UniProt O75534)
inactive: [3] 0.13 | [4] 0.027 | [6] -0.011 | [7] 0.051 | [8] -0.331 | [9] 0.047 | [10] 0.019 | [11] -0.112 | [13] -0.009 | [14] -0.137 | [15] 0.031

Pulled one by one from the list above, 2 records:
CRY2 (UniProt Q49AN0)
inactive: [1] 0 | [2] -0.186 | [5] 0.032 | [11] 0.013

CTRB2 (UniProt Q6GPI1)
inactive: [1] 0.001 | [2] -0.055 | [5] -0.055 | [16] 0.05 | [17] -0.06 | [8] 0.01 | [11] -0.136 | [15] 0.046

Carrying on:

CYLD (UniProt Q9NQC7)
inactive: [18] 0.029 | [19] 0.043 | [20] 0.034 | [13] 0.055

CTSS (UniProt P25774)
inactive: [18] -0.004 | [19] -0.289 | [16] 0.088 | [17] 0.018 | [20] 0.042 | [12] -0.036

CTNNBIP1 (UniProt Q9NSA3)
inactive: [18] -0.149 | [19] 0.066 | [20] 0.022 | [12] 0.074

CTNS isoform 2 (UniProt O60931)
inactive: [1] -0.124 | [2] -0.059 | [3] 0.04 | [4] 0.144 | [5] 0.042 | [16] 0.061 | [17] -0.009 | [6] -0.081 | [7] 0.016 | [9] 0.051 | [10] 0.177 | [12] 0.014 | [13] 0.103 | [14] -0.292

CRAMP1 (UniProt Q96RY5)
inactive: [1] -0.183 | [2] 0.227 | [5] -0.294 | [16] 0.008 | [17] -0.04 | [12] 0.097

CSNK2A1, A0A2R8Y4D6
inactive: [8] 0.172 | [15] -0.292

CROCCP2 (UniProt Q86T23)
inactive: [18] -0.025 | [19] 0.044 | [16] -0.111 | [17] 0.117 | [8] -0.138 | [20] -0.072 | [11] 0.159 | [13] 0.028 | [15] -0.285

CRNN (UniProt Q9UBG3)
inactive: [1] -1.2 | [2] -0.562 | [5] 0.002 | [11] 2

CTTNBP2NL (UniProt Q9P2B4)
inactive: [1] 0.097 | [2] -0.289 | [3] -0.05 | [4] -0.037 | [5] -0.121 | [16] -0.117 | [17] 0.197 | [6] 0.044 | [7] -0.017 | [8] 0.076 | [9] -0.039 | [10] -0.037 | [11] -0.005 | [13] 0.015 | [14] 0.021 | [15] -0.024

CSNK1G3 isoform 4 (UniProt Q9Y6M4)
inactive: [8] 0.235 | [15] -0.142

CTDNEP1 (UniProt O95476)
inactive: [12] -0.015 | [13] -0.054

CROT isoform 3 (UniProt Q9UKG9)
inactive: [18] 0.04 | [19] 0.14 | [16] 0.267 | [17] -0.02 | [20] -0.119 | [11] -0.02 | [13] -0.034

CTDSP1 (UniProt Q9GZU7)
inactive: [4] -0.041 | [6] 0.076 | [9] 0.02 | [10] -0.127 | [12] 0.037 | [13] -0.036 | [14] 0.096

CSNK1A1 isoform 3 (UniProt P48729)
inactive: [4] -0.006 | [6] 0.088 | [9] 0.13 | [10] 0.253 | [12] -0.061 | [14] 0.143

CSNK1D (UniProt P48730)
inactive: [1] -0.32 | [2] -0.06 | [3] 0.039 | [4] 0.124 | [16] -0.031 | [17] 0.013 | [6] -0.048 | [7] -0.086 | [9] -0.038 | [10] -0.112 | [11] 0.245 | [12] -0.151 | [13] -0.001 | [14] -0.143 | [15] 0.179
active: [5] 0.415 | [8] 0.494

CXXC5 (UniProt Q7LFL8)
inactive: [12] -0.016

CRYM (UniProt Q14894)
inactive: [1] -0.136 | [2] -0.092 | [3] -0.097 | [4] 0.19 | [5] -0.008 | [16] -0.078 | [17] 0.029 | [6] -0.133 | [7] 0.013 | [8] 0.052 | [9] -0.235 | [10] -0.203 | [13] 0.136 | [14] 0.12 | [15] 0.063

CXCL14 (UniProt O95715)
inactive: [1] 0.119 | [2] -0.094 | [3] -0.09 | [5] -0.268 | [16] -0.444 | [17] 0.119 | [7] -0.012

CRY1 (UniProt Q16526)
inactive: [11] -0.107

CYFIP1, A0A0G2JRV9
inactive: [8] 0.051 | [11] -0.172 | [15] 0.012

CREM isoform 1 (UniProt Q03060)
inactive: [3] 0.027 | [4] -0.046 | [6] 0.042 | [7] 0.032 | [8] -0.001 | [9] -0.049 | [10] -0.075 | [11] -0.007 | [12] -0.07 | [13] 0.034 | [14] 0.032 | [15] -0.037
